Reference: patent publication EP0641358B1, “BINDING PEPTIDES WHICH INTERACT WITH LIGAND GROWTH FACTORS OF THE EPIDERMAL GROWTH FACTOR RECEPTOR AND erbB-2-RECEPTOR” (GEORGETOWN UNIVERSITY, priority 1992, dated 2000)
Read-outs that look alike come from different tables or passages of the source. At least one peptide structure holds a part that was inferred or is arguable (an end, a ring closure or a residue). Where no end group is shown, it is not given here.

How the values were obtained:
[1] = system: EGFR; assay: in vitro tyrosine phosphorylation assay (phosphotyrosine western blot, densitometry) in MDA-MB-468 cells; type: cell-based, human; settings: for inhibition of the EGF stimulation of EGFR tyrosine phosphorylation: 6-60 µM peptide, EGF 1.68 nM (Figure 6B)
[2] = system: 4D5; assay: binding of iodinated RL2 to a 4D5 affinity column (protein A-sepharose coupled with 4D5), MgCl2 elution
[3] = system: SK-Br-3 cells; assay: soft agar colony formation (anchorage-independent growth) of SK-Br-3 cells; type: cell-based, human; settings: 60 µM RL2, 127 nM p185^erbB-2 ECD (Figure 5B)
[4] = system: EGFR; assay: EGFR binding competition assay with iodinated EGF in MDA-MB-468 cells; set-up: species or system human; settings: for binding of iodinated EGF to the EGFR: MDA-MB-468 cells, 1 nM iodinated EGF, peptide 0.6, 6, 60 µM (Figure 6A)
[5] = system: p185^erbB-2; assay: p185^erbB-2 binding competition assay with iodinated 4D5 in SK-Br-3 cells; set-up: species or system human
[6] = system: p185^erbB-2; assay: in vivo phosphorylation assay with phosphoaminoacid analysis of 185 kDa phosphoproteins in MDA-MB-453 cells; type: cell-based, human
[7] = system: p185^erbB-2; assay: in vitro tyrosine phosphorylation assay (phosphotyrosine western blot, densitometry) in MDA-MB-453 cells; type: cell-based, human; settings: 0.06 to 60 µM peptide, 50 pM gp30
[8] = system: MDA-MB-453 cells; settings: for Number of Colonies (±SD): MDA-MB-453 cells, untreated 942 ± 120

Row | Sequence | effect on EGF-induced tyrosine phosphorylation of EGFR [1] | inhibition of baseline level of EGFR tyrosine phosphorylation ([1]; 60 µM peptide) [%] | inhibition of gp30-stimulated level of EGFR tyrosine phosphorylation ([1]; 60 µM peptide, 50 pM gp30) | inhibition of the EGF stimulation of EGFR tyrosine phosphorylation [1] | binding to a 4D5-affinity column [2] | effect on the anchorage-independent growth of SK-Br-3 cells [3] | binding of iodinated EGF to the EGFR [4] | binding of 1 nM iodinated EGF to MDA-MB-468 cells ([4]; peptides in the 2-40 µM range) | IC50 ([5]; 1 nM iodinated 4D5, SK-Br-3 cells, 3 hours at 4°C, read-out: B/T 50 (displacement of the binding of iodinated 4D5 to SK-Br-3)) [µM] | displacement of the binding of iodinated 4D5 to SK-Br-3 ([5]; 1 nM iodinated 4D5, various concentrations of unlabeled peptides) | decrease of p185^erbB-2 tyrosine levels of phosphorylation in presence of gp30-stimulation ([6]; 60 µM RL2, 50 x 10^-12 M gp30) [%] | decrease of p185^erbB-2 tyrosine levels of phosphorylation in absence of gp30-stimulation ([6]; 60 µM RL2, 10 minutes at 37°C) [%] | inhibition of gp30-stimulated level of p185^erbB-2 tyrosine phosphorylation [7] [%] | Number of Colonies (±SD) ([8]; 6 µM) | Number of Colonies (±SD) ([8]; 60 µM) | effect on colony formation of MDA-MB-453 cells ([8]; Table 2)
1 | LGLRSLRE [RL2, Leu-Gly-Leu-Arg-Ser-Leu-Arg-Glu] | no effect | 71 | not the gp30-stimulated level | no effect | specifically bind | inhibiting effects | Unlike RL2 | absence of an effect | 8 | displaced in a dose-dependent manner | 26 | 50 | 80 | 245 ± 46 | 123 ± 21 | 
2 | LGLRSLKE [RL2-K, Leu-Gly-Leu-Arg-Ser-Leu-Lys-Glu] |  |  |  | up to 85% |  |  | blocked the binding of iodinated EGF to the EGFR in a dose-dependent manner |  |  |  |  |  |  | 788 ± 109 | 990 ± 92 | no significant effect
